Measurements reported in PubChem BioAssay AID2685 (National Center for Advancing Translational Sciences (NCATS), 2010).
The other results are listed elsewhere or left out. The main result of the screen is listed elsewhere. These columns were measured beside it and carry no call. The list favours compounds with an active or inconclusive main result. Words in brackets tell the shape of the fitted curve; partial curves, single points and poor fits give uncertain potencies.

Assay: qHTS Assay for Lipid Storage Modulators in Drosophila S3 Cells;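 as to cell number change: cells counted by Cell Tracker Red CMTPX staining in the red channel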
Conditions: BODIPY lipid droplet fluorescence, 18-24 h; for cell number change: measured here: cell count max response, cells fed with added oleic acid
Method in brief: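 Drosophila S3 cells got compounds at several concentrations plus oleic acid (400 uM solution). Laser-scanning cytometry with 488 nm excitation read lipid droplets at 500-530 nm and cells at 575-640 nm. Percent activity was relative to 20 uM Triacsin C.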

[1] = measured here: cell number channel AC50, cells fed with added oleic acid
[2] = measured here: lipid fluorescence (Fed channel) AC50, cells fed with added oleic acid

COc1nc(-c2ccccc2)cc(-c2ccc(OC)c(OC)c2)n1 showed a cell number change of -23.4%.
With CCOc1ccc(-n2c(C)nc(O)c2N=Nc2ccccc2)cc1 the AC50 [1] was 3.66 µM [falling, single point].
In the case of COc1ccc(-n2c(=O)c3c4c(sc3n(CC(N)=O)c2=O)CCCCC4)cc1, the cell number change is reported as -19%, the AC50 [1] is reported as 1.64 µM [falling, full curve, poor fit] and the AC50 [2] is reported as 29.1 µM [falling, single point].
With Cc1ccccc1OCC(=O)Nc1ccccc1-c1ccccc1 the cell number change was -23.6% and the AC50 [2] was 29.1 µM [falling, single point].
For COc1cccc(CC(=O)N2CCC(n3nccc3NC(=O)C3CCOC3)CC2)c1 (centres undefined), the cell number change was 20.8% and the AC50 [2] was 7.94 µM [rising, partial curve, poor fit].
In the case of CCCc1ccc2oc(C(=O)N(Cc3ccncc3)CC3CCCO3)c(C)c2c1 (centres undefined), the cell number change is reported as 1.74% and the AC50 [1] is reported as 1.84 µM [rising, partial curve].
In the case of CC1(C)SC2c3ccccc3C(=O)N2[C@@H]1C(=O)O (some centres undefined), the cell number change is reported as 3.6% and the AC50 [1] is reported as 5.17 µM [rising, single point].
In the case of Cc1cc2[nH]c(=O)c(=O)[nH]c2cc1S(=O)(=O)N1CCN(c2cccc(Cl)c2)CC1, the cell number change is reported as -23.9% and the AC50 [2] is reported as 29.1 µM [falling, single point].
In the case of Cc1ccc2nc(C)cc(N3CCOCC3)c2c1, the cell number change is reported as -32.1%, the AC50 [1] is reported as 32.6 µM [falling, single point] and the AC50 [2] is reported as 6.51 µM [falling, single point].
CNC(=S)NCc1ccc(OC)cc1 gave a cell number change of -3.74%.
COc1ccc2c(c1)c1nc3ccccc3nc1n2Cc1ccc(OC(C)C)c(OC)c1 gave a cell number change of -26.4%.
With Cc1ccc(S(=O)(=O)N(C)C)cc1NC(=O)CN1c2cccc3cccc(c23)S1(=O)=O the cell number change was -24.6% and the AC50 [2] was 2.31 µM [falling, partial curve, poor fit].
With COCCN(C(=O)CNC(=O)c1ccco1)C(C(=O)NC1CCCC1)c1ccc(OC)c(OC)c1 (centres undefined) the AC50 [2] was 29.1 µM [falling, single point].
With O=S(=O)(NC1CCCCC1)c1ccc(S(=O)(=O)N2CCN3CCCC3C2)cc1 (centres undefined) the cell number change was 3.38% and the AC50 [2] was 0.651 µM [falling, single point].
CC(C)(C)Nc1nc(SCC(=O)Nc2ccccc2Cl)nc(N2CCOCC2)n1 showed a cell number change of -19.1%.
With Clc1ccc(OCc2nc(-c3ccncc3)no2)c(Br)c1 the cell number change was 6.6% and the AC50 [2] was 3.66 µM [rising, full curve].
For O=C(Nc1cc(S(=O)(=O)N2CCOCC2)ccc1N1CCCC1)c1ccc(Cl)cc1, the cell number change was -54%, the AC50 [1] was 20.6 µM [falling, partial curve] and the AC50 [2] was 6.51 µM [rising, single point].
For CNc1nc(N)c([N+](=O)[O-])c(Nc2cccc(Cl)c2)n1, the cell number change was -10.6% and the AC50 [1] was 0.461 µM [falling, single point].
For O=C(Nc1ncccc1O)c1ccc(Cl)c(S(=O)(=O)N2CCCCC2)c1, the AC50 [2] was 29.1 µM [rising, single point].
With O=C(CCSc1nc(-c2ccco2)cc(C(F)(F)F)n1)NCc1cccs1 the cell number change was -26.8% and the AC50 [2] was 20.6 µM [falling, single point].
For O=C(CCN1C(=O)COc2ccccc21)NCCCN1CCN(c2ccccc2F)CC1, the cell number change was -16.8% and the AC50 [2] was 29.1 µM [falling, single point].
For CC(C)C(=O)Nc1ccc(Br)cc1Cl, the cell number change was 29.2% and the AC50 [2] was 3.55 µM [rising, single point].
In the case of Cc1ccc(-n2c(C)csc2=N)cc1, the cell number change is reported as 73.4%, the AC50 [1] is reported as 20.6 µM [rising, single point] and the AC50 [2] is reported as 29.1 µM [rising, single point].
In the case of CC(C)CNC(=O)/C=C/c1cccs1, the cell number change is reported as 14% and the AC50 [2] is reported as 0.103 µM [rising, full curve, poor fit].
In the case of Cc1ccc(NC(=O)CCc2c[nH]c3ccccc23)nc1, the cell number change is reported as -34.1%, the AC50 [1] is reported as 23.1 µM [falling, single point] and the AC50 [2] is reported as 14.6 µM [falling, partial curve].
In the case of Cc1csc2ncc(C(=O)N3CCCc4ccccc43)c(=O)n12, the cell number change is reported as -6.86% and the AC50 [2] is reported as 7.31 µM [falling, partial curve].
With COc1cc(CNCc2ccccc2)ccc1OCC(O)c1ccccc1 (centres undefined) the cell number change was -23.4%, the AC50 [1] was 0.326 µM [falling, single point] and the AC50 [2] was 0.651 µM [falling, single point].
With O=C(OCC(=O)N1CCN(c2ccccc2)CC1)c1ccco1 the AC50 [2] was 18.4 µM [falling, partial curve].
In the case of COc1cccc(NC(=O)Cn2c(=O)n(-c3ccccc3)c(=O)c3oc4ccccc4c32)c1, the cell number change is reported as 15.9%, the AC50 [1] is reported as 0.00461 µM [falling, full curve, poor fit] and the AC50 [2] is reported as 3.66 µM [rising, full curve].
For COc1ccc(C(=O)Oc2ccc(/C=N/NC(=O)c3cccnc3)cc2OC)cc1, the cell number change was -30%, the AC50 [1] was 0.82 µM [falling, full curve, poor fit] and the AC50 [2] was 8.2 µM [falling, partial curve].
With CCOc1ccccc1NC(=O)CSc1nnc(CNC(=O)c2cccs2)o1 the cell number change was 18.4% and the AC50 [1] was 0.82 µM [rising, full curve, poor fit].
For COc1ccc(NC(=O)CN2CCN(C3c4ccccc4-c4ccccc43)CC2)cc1, the cell number change was -12.5% and the AC50 [2] was 2.59 µM [rising, single point].
With Cn1ccnc1SCC(=O)c1ccc([N+](=O)[O-])cc1 the cell number change was 91.7% and the AC50 [1] was 14.6 µM [rising, partial curve].
With Cc1ccccc1NC(=O)CC(=O)Nc1ccccc1C the AC50 [2] was 6.51 µM [rising, single point].
In the case of O=C(C1=NOC(CNc2ncc(C(F)(F)F)cc2Cl)C1)N1CCOCC1 (centres undefined), the cell number change is reported as 15.4% and the AC50 [2] is reported as 0.00461 µM [falling, full curve, poor fit].
In the case of Cc1nc(NC(=O)COC(=O)c2cc3c(s2)CCC(C)C3)c(Cl)cc1Cl (centres undefined), the cell number change is reported as 18.9% and the AC50 [2] is reported as 0.82 µM [rising, partial curve].
With COc1ccc(C(=O)NC2CCCc3c2cnn3-c2ccccc2F)o1 (centres undefined) the cell number change was 9.43%, the AC50 [1] was 0.58 µM [falling, full curve] and the AC50 [2] was 0.291 µM [falling, partial curve, poor fit].
